Assay results as given in patent US8288316B2, “N-(1,2,5-oxadiazol-3-yl)benzamides and their use as herbicides” (Bayer Cropscience AG, priority 2009, dated 2012).
Some entries share one result that the patent states for a list of compounds.

How the values were obtained:
Assay type in all cases: in vivo
Amaranthus retroflexus [1] = assay: Pre-emergence herbicidal action against harmful plants; conditions: application rate 80 g/ha, visual assessment after 3 weeks vs untreated controls (100% = plants have died)
Viola tricolor = assay: Post-emergence herbicidal action against harmful plants; conditions: one-leaf stage, application rate 80 g/ha, rated visually after about 3 weeks vs untreated controls (100% = plants have died)
Abutilon theophrasti [2] = assay: Pre-emergence herbicidal action against harmful plants; conditions: application rate 80 g/ha, visual assessment after 3 weeks vs untreated controls (100% = plants have died)
Amaranthus retroflexus [3] = assay: Post-emergence herbicidal action against harmful plants; conditions: one-leaf stage, application rate 80 g/ha, rated visually after about 3 weeks vs untreated controls (100% = plants have died)
Echinochloa crus-galli = assay: Pre-emergence herbicidal action against harmful plants; conditions: application rate 80 g/ha, visual assessment after 3 weeks vs untreated controls (100% = plants have died)
Veronica persica [4] = assay: as above; conditions: application rate 80 g/ha, visual assessment after 3 weeks vs untreated controls (100% = plants have died)
Abutilon theophrasti [5] = assay: Post-emergence herbicidal action against harmful plants; conditions: one-leaf stage, application rate 80 g/ha, rated visually after about 3 weeks vs untreated controls (100% = plants have died)
Veronica persica [6] = assay: as above; conditions: one-leaf stage, application rate 80 g/ha, rated visually after about 3 weeks vs untreated controls (100% = plants have died)
Matricaria inodora = assay: Pre-emergence herbicidal action against harmful plants; conditions: application rate 80 g/ha, visual assessment after 3 weeks vs untreated controls (100% = plants have died)

CSc1c(C(F)(F)F)ccc(C(=O)Nc2nonc2C)c1C [1-51]
at least 80%: herbicidal activity in percent against Amaranthus retroflexus (Amaranthus retroflexus [1]) | herbicidal activity in percent against Viola tricolor (Viola tricolor) | herbicidal activity in percent against Abutilon theophrasti (Abutilon theophrasti [2]) | herbicidal activity in percent against Amaranthus retroflexus (Amaranthus retroflexus [3])

Cc1nonc1NC(=O)c1ccc(C(F)(F)F)c(S(C)(=O)=O)c1C [1-54]
at least 80%: herbicidal activity in percent against Echinochloa crus-galli (Echinochloa crus-galli) | herbicidal activity in percent against Amaranthus retroflexus (Amaranthus retroflexus [1]) | herbicidal activity in percent against Viola tricolor (Viola tricolor) | herbicidal activity in percent against Abutilon theophrasti (Abutilon theophrasti [2]) | herbicidal activity in percent against Veronica persica (Veronica persica [4]) | herbicidal activity in percent against Amaranthus retroflexus (Amaranthus retroflexus [3])

Cc1nonc1NC(=O)c1ccc(S(C)(=O)=O)c(C2=NOCC2)c1C [1-71]
at least 80%: herbicidal activity in percent against Abutilon theophrasti (Abutilon theophrasti [5]) | herbicidal activity in percent against Veronica persica (Veronica persica [6]) | herbicidal activity in percent against Echinochloa crus-galli (Echinochloa crus-galli) | herbicidal activity in percent against Veronica persica (Veronica persica [4])

Cc1nonc1NC(=O)c1ccc(S(C)(=O)=O)c(COCC(F)(F)F)c1Cl [1-119]
at least 80%: herbicidal activity in percent against Echinochloa crus-galli (Echinochloa crus-galli) | herbicidal activity in percent against Viola tricolor (Viola tricolor) | herbicidal activity in percent against Veronica persica (Veronica persica [4]) | herbicidal activity in percent against Amaranthus retroflexus (Amaranthus retroflexus [3])

CSc1c(S(C)(=O)=O)ccc(C(=O)Nc2nonc2C)c1Cl [1-123]
at least 80%: herbicidal activity in percent against Amaranthus retroflexus (Amaranthus retroflexus [1]) | herbicidal activity in percent against Viola tricolor (Viola tricolor) | herbicidal activity in percent against Abutilon theophrasti (Abutilon theophrasti [2]) | herbicidal activity in percent against Amaranthus retroflexus (Amaranthus retroflexus [3])

Cc1nonc1NC(=O)c1ccc(Cl)c(OCC2CCC(=O)N2)c1Cl (stereo not drawn) [1-127]
at least 80%: herbicidal activity in percent against Viola tricolor (Viola tricolor) | herbicidal activity in percent against Amaranthus retroflexus (Amaranthus retroflexus [3])

CSc1c(C(F)(F)F)ccc(C(=O)Nc2nonc2C)c1F [1-147]
at least 80%: herbicidal activity in percent against Abutilon theophrasti (Abutilon theophrasti [5]) | herbicidal activity in percent against Veronica persica (Veronica persica [6])

Cc1nonc1NC(=O)c1ccc(C(F)(F)F)c([S+](C)[O-])c1F (stereo not drawn) [1-148]
at least 80%: herbicidal activity in percent against Echinochloa crus-galli (Echinochloa crus-galli) | herbicidal activity in percent against Amaranthus retroflexus (Amaranthus retroflexus [1]) | herbicidal activity in percent against Viola tricolor (Viola tricolor) | herbicidal activity in percent against Abutilon theophrasti (Abutilon theophrasti [2]) | herbicidal activity in percent against Veronica persica (Veronica persica [4]) | herbicidal activity in percent against Amaranthus retroflexus (Amaranthus retroflexus [3])

COc1c(C(=O)Nc2nonc2C)ccc(C(F)(F)F)c1SC [1-149]
at least 80%: herbicidal activity in percent against Amaranthus retroflexus (Amaranthus retroflexus [1]) | herbicidal activity in percent against Abutilon theophrasti (Abutilon theophrasti [2])

CCc1nonc1NC(=O)c1ccc(C(F)(F)F)c([S+](C)[O-])c1C (stereo not drawn) [2-56]
at least 80%: herbicidal activity in percent against Echinochloa crus-galli (Echinochloa crus-galli) | herbicidal activity in percent against Veronica persica (Veronica persica [4])

CCc1nonc1NC(=O)c1ccc(S(C)(=O)=O)c(C2=NOCC2)c1C [2-71]
at least 80%: herbicidal activity in percent against Abutilon theophrasti (Abutilon theophrasti [5]) | herbicidal activity in percent against Veronica persica (Veronica persica [6]) | herbicidal activity in percent against Amaranthus retroflexus (Amaranthus retroflexus [1]) | herbicidal activity in percent against Abutilon theophrasti (Abutilon theophrasti [2])

CCc1nonc1NC(=O)c1ccc(S(=O)(=O)CC)c(C2=NOC(CC#N)C2)c1Cl (stereo not drawn) [2-119]
at least 80%: herbicidal activity in percent against Amaranthus retroflexus (Amaranthus retroflexus [1]) | herbicidal activity in percent against Viola tricolor (Viola tricolor) | herbicidal activity in percent against Abutilon theophrasti (Abutilon theophrasti [2]) | herbicidal activity in percent against Amaranthus retroflexus (Amaranthus retroflexus [3])

CC(C)c1nonc1NC(=O)c1ccc(S(C)(=O)=O)c(COCC(F)(F)F)c1Cl [3-119]
at least 80%: herbicidal activity in percent against Viola tricolor (Viola tricolor) | herbicidal activity in percent against Amaranthus retroflexus (Amaranthus retroflexus [3])

CCS(=O)(=O)c1ccc(C(=O)Nc2nonc2C(C)C)c(Cl)c1C1=NOC(CC#N)C1 (stereo not drawn) [3-120]
at least 80%: herbicidal activity in percent against Matricaria inodora (Matricaria inodora) | herbicidal activity in percent against Viola tricolor (Viola tricolor) | herbicidal activity in percent against Veronica persica (Veronica persica [4]) | herbicidal activity in percent against Amaranthus retroflexus (Amaranthus retroflexus [3])

CCCc1nonc1NC(=O)c1ccc(S(=O)(=O)CC)c(C2=NOC(CC#N)C2)c1Cl (stereo not drawn) [4-120]
at least 80%: herbicidal activity in percent against Viola tricolor (Viola tricolor) | herbicidal activity in percent against Amaranthus retroflexus (Amaranthus retroflexus [3])

CCS(=O)(=O)c1ccc(C(=O)Nc2nonc2C(C)(C)C)c(Cl)c1C1=NOC(CC#N)C1 (stereo not drawn) [6-120]
at least 80%: herbicidal activity in percent against Matricaria inodora (Matricaria inodora) | herbicidal activity in percent against Viola tricolor (Viola tricolor) | herbicidal activity in percent against Veronica persica (Veronica persica [4]) | herbicidal activity in percent against Amaranthus retroflexus (Amaranthus retroflexus [3])

COc1nonc1NC(=O)c1ccc(S(C)(=O)=O)c(COCC(F)(F)F)c1Cl [9-174, 2-chloro-N-(4-methoxy-1,2,5-oxadiazol-3-yl)-4-(methylsulfonyl)-3-[(2,2,2-trifluoroethoxy)methyl]benzamide]
at least 80%: herbicidal activity in percent against Echinochloa crus-galli (Echinochloa crus-galli) | herbicidal activity in percent against Viola tricolor (Viola tricolor) | herbicidal activity in percent against Veronica persica (Veronica persica [4]) | herbicidal activity in percent against Amaranthus retroflexus (Amaranthus retroflexus [3])

CCS(=O)(=O)c1ccc(C(=O)Nc2nonc2OC)c(Cl)c1C1=NOC(CC#N)C1 (stereo not drawn) [9-180]
at least 80%: herbicidal activity in percent against Echinochloa crus-galli (Echinochloa crus-galli) | herbicidal activity in percent against Viola tricolor (Viola tricolor) | herbicidal activity in percent against Veronica persica (Veronica persica [4]) | herbicidal activity in percent against Amaranthus retroflexus (Amaranthus retroflexus [3])

CCS(=O)(=O)c1ccc(C(=O)Nc2nonc2OC)c(Cl)c1COC1CCOC1 (stereo not drawn) [9-200]
at least 80%: herbicidal activity in percent against Viola tricolor (Viola tricolor) | herbicidal activity in percent against Amaranthus retroflexus (Amaranthus retroflexus [3])
